Experimental data taken from the supplement of paper PMC10338343.
± gives the standard deviation. This is a selection; strong and weak results do not stand in their true shares. Many of these values have a large error.

Legend:
[1] = test system: MILI (PIWIL2) piRISC loaded with piRNA #1 (26 nt); assay: pre-steady-state target cleavage rate (min^-1); higher = faster piRNA-guided slicing of the target; conditions: guide: piRNA #1 5'p-UGAGGUAGUAGGUUGUAUAGUAUCCA; auxiliary factor: 500 nM mouse GTSF1;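 also: 1 nM active piRISC with 0.1 nM target library at 33 °C single turnover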
In short: (§1)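 In this Cleave-'n-Seq assay, uncleaved targets were sequenced and normalised to depth and to weakly complementary targets. They came from a transcribed, DNA-blocked target RNA library […] mixed with 1 nM active affinity-purified piRISC carrying one synthetic guide, with or without 500 nM GTSF1 partner protein, in HEPES–potassium acetate buffer at 33 °C for 0–8 or 0–960 min. After three trials were pooled and k3 was capped at 0.0001 min^-1, the pre-steady-state cleavage rate was obtained from a burst-and-steady-state fit.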

[2] = test system: EfPiwi piRISC loaded with piRNA #1 (26 nt); assay: pre-steady-state target cleavage rate (min^-1); guide: piRNA #1 5'p-UGAGGUAGUAGGUUGUAUAGUAUCCA; MIWI and MILI are mouse PIWI proteins and EfPiwi is from a freshwater sponge; tags in brackets are library labels; higher = faster piRNA-guided slicing of the target; conditions: auxiliary factor: 500 nM Ephydatia muelleri Gtsf1
In short: as §1

Sequence | pre-steady-state target cleavage rate [1] | pre-steady-state target cleavage rate [2]
GGAGACCAUACUAUACAACCUACAACCUGA | 0.0179 ± 0.0095 | 0.00439 ± 0.0042
GGAGACCAUACUAUACAACCAACUUCCUCA | 0.00585 ± 0.003 | 0.00509 ± 0.0046
GGAGUGCAUACUAUACAUCCUACUACCUCA | 0.313 ± 0.015 | 0.0107 ± 0.0041
GGAGACCUAACUAUACAACCUUCAACCUCA | 0.00258 ± 0.005 | 0.000905 ± 0.0071
GGAGUGGAUACUAAAGAACCUACUACCUCA | 0.167 ± 0.011 | 0.000433 ± 0.006
GGAGACCUAUCUAUACAACCAACUACCUGA | 0.00256 ± 0.0037 | 0.00269 ± 0.0037
GGAGCGGAUACUAUACAACCUACUACCUCA | 0.203 ± 0.013 | 0.141 ± 0.048
GGAGAGGAUACUAUUCAACCAACUACCUCA | 0.00614 ± 0.0021 | 0.00354 ± 0.0021
GGAGACCUAUGAUAUGUAGCUUCUACCUCA | 0.00011 ± 0.027 | 0.000149 ± 0.018
GGAGACGAUACUAUACAAGGAACUACCUCA | 0.00281 ± 0.0034 | 0.00118 ± 0.0063
GGAGACCUAUGAUAUGAUCCUACUACCUCA | 0.000118 ± 0.022 | 0.000685 ± 0.0057
GGAGACCUUACUAUACAACCUACCACCUCA | 0.118 ± 0.015 | 0.00291 ± 0.003
GGAGUGGAUACUAUACAACCUACUACCGCA | 0.0694 ± 0.0095 | 0.00573 ± 0.002
GGAGACCUAUGAUUAGAACCUACUACGUCA | 0.000174 ± 0.015 | 0.00029 ± 0.0097
GGAGACCUAACUAAUACAACCUACUACCUCA | 0.103 ± 0.025 | 0.0103 ± 0.0044
GGAGACCUAUCUAUACUAGCUACUACCUCA | 0.0865 ± 0.011 | 0.000542 ± 0.0051
GGAGACGAUACUAUACAACCUAUCUACCUCA | 0.17 ± 0.017 | 0.00473 ± 0.0019
GGAGACCUAUGAUAUGUUGGUACUAACCUCA | 0.00011 ± 0.048 | 0.000115 ± 0.028
GGAGACCUAUGAUAUGUUGCUAUUACCUCA | 0.000123 ± 0.021 | 0.000842 ± 0.0073
GGAGACCUAACUAUACAUGCUACUACCUCA | 0.0788 ± 0.013 | 0.00114 ± 0.0037
GGAGACCAUACUAAACAAGCUACUACCUCA | 0.236 ± 0.018 | 0.000515 ± 0.006
GGAGACCUAACUAUAAAACCUACUACCUCA | 0.0772 ± 0.013 | 0.000796 ± 0.0089
GGAGACCUUACUAUACAUCCUUCUACCUCA | 0.0405 ± 0.0086 | 0.00288 ± 0.0037
GGAGACCUAUGAUAUCAUCCUACAACCUCA | 0.00348 ± 0.003 | 0.000203 ± 0.01
GGAGACCUAUGAUAACUAGCUACUACCUCA | 0.00033 ± 0.01 | 0.000345 ± 0.01
GGAGACCUAACUAAACAACCUACUACCUGA | 0.0558 ± 0.021 | 0.00144 ± 0.0053
GGAGACCUAUGAUAAGAUCCUACUACCUCA | 0.000194 ± 0.013 | 0.000331 ± 0.0063

As a short view, some entries already given.
Sequence | pre-steady-state target cleavage rate [1] | pre-steady-state target cleavage rate [2]
GGAGACCUAUGAUAUGAUCCUACUACCUCA | 0.000118 ± 0.022 | 0.000685 ± 0.0057
GGAGACCUUACUAUACAACCUACCACCUCA | 0.118 ± 0.015 | 0.00291 ± 0.003
GGAGUGGAUACUAUACAACCUACUACCGCA | 0.0694 ± 0.0095 | 0.00573 ± 0.002
GGAGACCUAUGAUUAGAACCUACUACGUCA | 0.000174 ± 0.015 | 0.00029 ± 0.0097
GGAGACCUAACUAAUACAACCUACUACCUCA | 0.103 ± 0.025 | 0.0103 ± 0.0044
GGAGACCUAUCUAUACUAGCUACUACCUCA | 0.0865 ± 0.011 | 0.000542 ± 0.0051
GGAGACGAUACUAUACAACCUAUCUACCUCA | 0.17 ± 0.017 | 0.00473 ± 0.0019
GGAGACCUAUGAUAUGUUGGUACUAACCUCA | 0.00011 ± 0.048 | 0.000115 ± 0.028
GGAGACCUAUGAUAUGUUGCUAUUACCUCA | 0.000123 ± 0.021 | 0.000842 ± 0.0073
GGAGACCUAACUAUACAUGCUACUACCUCA | 0.0788 ± 0.013 | 0.00114 ± 0.0037
GGAGACCAUACUAAACAAGCUACUACCUCA | 0.236 ± 0.018 | 0.000515 ± 0.006
GGAGACCUAACUAUAAAACCUACUACCUCA | 0.0772 ± 0.013 | 0.000796 ± 0.0089
GGAGACCUUACUAUACAUCCUUCUACCUCA | 0.0405 ± 0.0086 | 0.00288 ± 0.0037
GGAGACCUAUGAUAUCAUCCUACAACCUCA | 0.00348 ± 0.003 | 0.000203 ± 0.01
GGAGACCUAUGAUAACUAGCUACUACCUCA | 0.00033 ± 0.01 | 0.000345 ± 0.01

(listing goes on)

Sequence | pre-steady-state target cleavage rate [1] | pre-steady-state target cleavage rate [2]
GGAGACGAUACUAUUCAACGUACUACCUCA | 0.0257 ± 0.0034 | 0.00355 ± 0.0011
GGAGACCUAUCUAUACAACCUACUAACUCA | 0.0846 ± 0.017 | 0.00341 ± 0.0046
GGAGACCAUACUAUAGAACCUAGUACCUCA | 0.000396 ± 0.0075 | 0.00118 ± 0.0056
GGAGACCAUACUAUACAACUUACUACCUCA | 0.0165 ± 0.0023 | 0.00338 ± 0.0027
GGAGACCUUACUAUACAACCUACUUGCUCA | 0.098 ± 0.021 | 0.00263 ± 0.0043
GGAGACCUAUCUAUACAACCUACUUGGUCA | 0.001 ± 0.0061 | 0.00107 ± 0.005
GGAGACCUUACAAUACAACCUUCUACCUCA | 0.00687 ± 0.0029 | 0.0017 ± 0.0053
GGAGACCAUACUAUACAUGCUACUACCUCA | 0.0704 ± 0.01 | 0.00201 ± 0.0032
GGAGACGAUACUAUAGAACCAACUACCUCA | 0.00326 ± 0.0028 | 0.00377 ± 0.002
GGAGACGAUACUAUACAACCUACUAGCUGA | 0.0101 ± 0.0055 | 0.00481 ± 0.0027
GGAGACCUAACUAUAGAACCAACUACCUCA | 0.000782 ± 0.013 | 0.000489 ± 0.016
GGAGACCAUACUAUACAACCUACAUACCUCA | 0.146 ± 0.018 | 0.00306 ± 0.0029
GGAGACCUAUGAUUACAAGCAACUACCUCA | 0.00158 ± 0.0042 | 0.00106 ± 0.007
GGAGACCUUACUAUUCAUCCUACUACCUCA | 0.231 ± 0.018 | 0.00166 ± 0.0038
GGAGUGGAAACUAUACAAGCUACUACCUCA | 0.257 ± 0.021 | 0.00579 ± 0.0027
GGAGAGGAUACUAUACAACCAUGUACCUCA | 0.000697 ± 0.0061 | 0.000786 ± 0.0038
GGAGAGGAUACUAUACAACCUAGAUGGAGA [g9:g25:cont:t1A] | 0.00152 ± 0.0049 | 0.00125 ± 0.0032
GGAGACCUAACUAUACAACGCUACUACCUCA | 0.000483 ± 0.023 | 0.00208 ± 0.0055
GGAGACCUUACUAUACAACCAACUACCACA | 0.00377 ± 0.0038 | 0.00335 ± 0.005
GGAGACCUAUGUAUACAACCUAGUACGUCA | 0.00191 ± 0.0046 | 0.00076 ± 0.0024
GGAGAGGAUACUAUACAACCUACUCCUCA | 0.00213 ± 0.0025 | 0.00473 ± 0.0025
GGAGACCUAUGAUAACAACCUACUACGUGA | 0.000639 ± 0.011 | 0.000874 ± 0.0081
GGAGACCUAUGAUAUGAACGUACUACCUCA | 0.000305 ± 0.0076 | 0.00038 ± 0.0082
GGAGACCUAUCUAUACAAACUACUACCUCA | 0.171 ± 0.015 | 0.00405 ± 0.005
GGAGACCAUACUAUACAAGCUACUACCACA | 0.32 ± 0.02 | 0.00382 ± 0.0046
GGAGUGCAUACUAUACAACCUACUUCCUCA | 0.00653 ± 0.0022 | 0.00155 ± 0.0024
GGAGUGCAUACUAUUCAACCUACUACCUCA | 0.182 ± 0.011 | 0.00471 ± 0.0042
